Library screen at single concentrations

Protein sequences, listed by entry. Tags and fused reporters are not part of them.
UniProt P9WNZ1, whole entry: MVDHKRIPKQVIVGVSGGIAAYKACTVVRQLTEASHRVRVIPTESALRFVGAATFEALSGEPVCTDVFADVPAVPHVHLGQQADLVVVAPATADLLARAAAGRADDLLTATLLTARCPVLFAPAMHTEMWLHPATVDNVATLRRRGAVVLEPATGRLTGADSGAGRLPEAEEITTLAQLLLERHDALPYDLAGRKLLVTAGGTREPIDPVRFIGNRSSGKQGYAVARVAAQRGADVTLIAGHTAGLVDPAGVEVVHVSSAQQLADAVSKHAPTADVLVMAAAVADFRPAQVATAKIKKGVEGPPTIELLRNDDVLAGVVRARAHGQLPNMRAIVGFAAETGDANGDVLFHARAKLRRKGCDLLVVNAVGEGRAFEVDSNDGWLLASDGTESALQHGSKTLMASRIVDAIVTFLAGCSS
UniProt P9WFT3, whole entry: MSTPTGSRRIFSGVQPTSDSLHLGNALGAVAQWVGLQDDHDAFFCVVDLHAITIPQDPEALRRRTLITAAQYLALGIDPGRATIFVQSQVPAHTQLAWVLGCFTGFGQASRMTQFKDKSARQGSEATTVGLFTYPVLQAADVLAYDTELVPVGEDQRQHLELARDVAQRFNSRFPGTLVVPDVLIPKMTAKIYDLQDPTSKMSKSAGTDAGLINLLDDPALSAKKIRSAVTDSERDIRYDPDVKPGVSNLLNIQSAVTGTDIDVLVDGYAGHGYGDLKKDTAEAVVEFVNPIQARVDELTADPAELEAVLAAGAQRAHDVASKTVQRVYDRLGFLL

The filed quantity is “Percent Effect” (%). How 0% and 100% were set is not recorded. Most values in the screen are low, and negative values occur. This is an unselected part of the compounds tested. A dash means the value is not listed here; it may have been measured.

CoaBC: 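Enzyme assay of CoaBC with a phosphate dye (Biomol Green) read at 650 nm. Target: Coenzyme A biosynthesis protein CoaBC, Mycobacterium tuberculosis (UniProt P9WNZ1). Concentration: 30 µM. Higher reads as stronger inhibition, judged from the few compounds that gave an IC50. Most strong results did not repeat in a second test. Of about 67,000 compounds tested this way, about 40 (0.06%) reached 50% or more in at least one test.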
MtTrpRS: 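Tryptophan-tRNA ligase, Mycobacterium tuberculosis (UniProt P9WFT3). Enzyme assay of tryptophanyl-tRNA synthetase; the read-out is not stated. Compounds at 10 µM. Direction is not recorded; retested compounds ran higher, which suggests that high means inhibition. About 65,000 compounds were tested under these conditions; 0.098% (about 64) showed 50% or more at least once.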

| # | Compound | CoaBC | MtTrpRS |
|---|---|---|---|
| 1 | `CC(C)=CCN1CCN(CCCOc2ccccc2)[C@H]2CS(=O)(=O)C[C@H]21` | -3.909% | -5.734% |
| 2 | `CS(=O)(=O)NC1CCN(C(=O)COCc2ccccc2)CC1` | 10.28% | -2.02% |
| 3 | `CC(=O)N1CCC[C@H]1C(=O)N(C)CCCOc1ccccc1` | 10.98% | -3.276% |
| 4 | `CC(c1ccc(Cl)cc1)N1CCN(CCNS(C)(=O)=O)CC1` (stereo unspecified) | 3.198% | 1.78% |
| 5 | `CC(=O)Nc1nc(C(=O)NCCOc2cccc(C)c2)cs1` | -2.445% | -3.524% |
| 6 | `Cc1nc(C)c(COc2ccc(S(=O)(=O)N(C)C)cc2)s1` | 7.905% | 1.071% |
| 7 | `NC(=O)c1cnc(NC2CCN(C(=O)C3CC3)CC2)c(Cl)c1` | 3.636% | -2.528% |
| 8 | `Cn1cc(CC2CCN(C(=O)NCc3csc(C4CC4)n3)C2)cn1` (stereo unspecified) | 2.767% | 2.714% |
| 9 | `Cc1noc(C)c1CCCNC(=O)C1CCN(C(C)C)CC1` | 1.373% | 5.16% |
| 10 | `COc1ccccc1C1Cn2c(C)cnc2CN1Cc1ccc(C)nc1` (stereo unspecified) | -2.098% | 18.5% |
| 11 | `Cc1ccccc1CN(C)C(=O)CN1CCOC(Cn2cccn2)C1` (stereo unspecified) | -7.507% | 9.256% |
| 12 | `Cc1ccc(CN2CCO[C@@H]3[C@@H](OCc4cccnc4)CC[C@@H]32)o1` | -1.238% | - |
| 13 | `COc1ccc(Nc2nc(N)c(C(C)=O)s2)cc1Cl` | -1.266% | 1.568% |
| 14 | `Cc1nc(-c2cnn(C)c2)nc2c1CN(C(=O)c1cccnc1)CC2` | -2.114% | 0.55% |
| 15 | `CC(C)(NCC(=O)N1CCCC(C(N)=O)C1)c1ccc(Cl)cc1` (stereo unspecified) | 0.8696% | -2.601% |
| 16 | `O=C(O)[C@@H]1CN(Cc2ccc(-c3cc[nH]n3)s2)C[C@H]1C1CC1` | -2.258% | 1.92% |
| 17 | `NC(=O)CN1CCC(c2csc(Nc3cnccn3)n2)CC1` | 12.1% | -7.542% |
| 18 | `NC(=O)CN1CCCN(C(=O)c2ccc(SC(F)F)cc2)CC1` | 6.061% | -1.419% |
| 19 | `COC(=O)c1cc2n(n1)CCN(C(=O)c1csc(CN(C)C)n1)C2` | 7.767% | 6.207% |
| 20 | `Nc1nccc(C2CCN(c3cnccn3)C2)n1` (stereo unspecified) | 0.4566% | 8.045% |
| 21 | `c1cnc(NC2COC3(CCN(Cc4cccs4)CC3)C2)nc1` (stereo unspecified) | 5.25% | 0.1285% |
| 22 | `Cc1cc(CNC(=O)C2CC(=O)N(CCN(C)C)C2)cc(C)n1` (stereo unspecified) | 0.1211% | 1.244% |
| 23 | `CCOc1ccc(Cl)c(C(=O)NC)n1` | 1.053% | 1.471% |
| 24 | `Cc1cc(C)n(CC2CN(CC(=O)NC3CCOCC3)CCO2)n1` (stereo unspecified) | 5.806% | 27.46% |
| 25 | `O=C(NC1CC1)C1CN(C(=O)c2cnccn2)C1` | -6.131% | 1.14% |
| 26 | `CCOC(=O)c1sc(NC(=O)COC)c(C#N)c1C` | 0.3444% | 0.7168% |
| 27 | `CNC(=O)[C@@H]1C[C@@H](NC(=O)c2cn(C)nc2C)CN1Cc1sccc1C` | 3.213% | 3.003% |
| 28 | `CN(Cc1ccco1)Cc1ccccc1CNC(=O)c1ccncc1` | 0.6397% | 2.09% |
| 29 | `O=C1N(Cc2ccc(F)c(F)c2)CCCC1(O)CNCc1cccnc1` (stereo unspecified) | -0.5076% | 2.647% |
| 30 | `Cc1ccccc1OCn1ccc(C(=O)NCCN2CCOCC2)n1` | -18.01% | -0.5181% |
| 31 | `CC(C)N(C)Cc1cnc2n1CCN(Cc1cccc(F)c1)C2` | -1.186% | -1.696% |
| 32 | `COc1ccccc1C1=NOC(CC2(C(=O)O)CCOCC2)C1` (stereo unspecified) | 15.82% | 11.65% |
| 33 | `CC(C)C(=O)N1CCC(Cc2nccnc2Nc2ccccn2)CC1` | 3.874% | - |
| 34 | `Cc1c(C(=O)NCCCC(N)=O)sc2ccc(F)cc12` | 6.821% | -2.656% |
| 35 | `Cc1ccc(C(=O)N2CCCCC2CN(C)C)cc1` (stereo unspecified) | 4.793% | -0.1468% |
| 36 | `Cc1noc(CN2CCCC(Cn3nc(C)nc3C)C2)n1` (stereo unspecified) | 6.584% | -7.052% |
| 37 | `CC(C)N1CCC(CC(=O)N2CCN(Cc3nccn3C)CC2)CC1` | 0.2469% | -2.819% |
| 38 | `O=C1CN(C(=O)C2CCCOC2)CCN1Cc1ccc(Cl)cc1` (stereo unspecified) | -0.2415% | 0.5455% |
| 39 | `CCCC(=O)N1CCCC(c2cc3cccnc3c(O)n2)C1` (stereo unspecified) | 13.75% | -0.2342% |
| 40 | `Cn1cc(CN2CCc3c(CNC(=O)C4CC4)cncc3C2)cn1` | -3.1% | 5.221% |
| 41 | `Cc1nc(C2CCCN2C(=O)c2ccccc2)ncc1C(N)=O` (stereo unspecified) | 5.959% | -1.057% |
| 42 | `Cn1cncc1-c1nnc([C@H]2CCN(Cc3ncc[nH]3)C2)o1` | 2.947% | 7.704% |
| 43 | `Cn1nc2c(cc1=O)CN(Cc1nc(-c3ccsc3)no1)CC2` | -1.305% | -4.827% |
| 44 | `Cc1cccc2c1nc1n2[C@@H](CNC(=O)c2ccccn2)COC1` | 9.492% | 3.718% |
| 45 | `CCN(CC)CCNC(=O)C(C)OCC(F)(F)F` (stereo unspecified) | -1.951% | 0.1698% |
| 46 | `Cc1ccc(NC(=O)c2nc(N3CCCCC3)ncc2Cl)cc1I` | 7.863% | -0.4036% |
| 47 | `CN(Cc1cccnc1)C1CC2(CCN(C(=O)c3cscn3)CC2)C1` | 4.684% | 3.787% |
| 48 | `COc1ccc2nc(C3CC3)cc(C(=O)NCc3noc(C)n3)c2c1` | - | 4.339% |
| 49 | `CNc1cncc(C2CCCN2S(=O)(=O)c2ccc(F)cc2)n1` (stereo unspecified) | -0.2433% | -3.072% |
| 50 | `CS(=O)(=O)N1CC[C@]2(O)CCN(c3ccnc(N)n3)C[C@@H]2C1` | 2.331% | -1.234% |
| 51 | `c1coc(CN2C[C@@H]3CCCO[C@@H]3[C@H](N3CCCC3)C2)c1` | 4.202% | -1.569% |
| 52 | `CCOC1COC2(CCN(S(=O)(=O)c3ccc(F)cc3)CC2)C1` (stereo unspecified) | 1.724% | -6.46% |

Once more, the final 5:

Compound	CoaBC	MtTrpRS
COc1ccc2nc(C3CC3)cc(C(=O)NCc3noc(C)n3)c2c1	-	4.339%
CNc1cncc(C2CCCN2S(=O)(=O)c2ccc(F)cc2)n1 (stereo unspecified)	-0.2433%	-3.072%
CS(=O)(=O)N1CC[C@]2(O)CCN(c3ccnc(N)n3)C[C@@H]2C1	2.331%	-1.234%
c1coc(CN2C[C@@H]3CCCO[C@@H]3[C@H](N3CCCC3)C2)c1	4.202%	-1.569%
CCOC1COC2(CCN(S(=O)(=O)c3ccc(F)cc3)CC2)C1 (stereo unspecified)	1.724%	-6.46%

Measurements from “University of Dundee, Small-Polar-MMV Screening Library” (2021), ChEMBL document CHEMBL3988442.